Measured values: patent US9480750B2, “Preparation of antibody or an antibody fragment targeted immunoliposomes for systemic administration of therapeutic or diagnostic agents and uses thereof” (GEORGETOWN UNIVERSITY, priority 1999, dated 2016)
Structures can show the parent of a compound that is named as a salt.

Test system: MDA-MB-435 human melanoma cells
Experiment: In vitro chemosensitization, XTT
Assay type: cell-based
Conditions: 30 uM Imatinib Mesylate; FIG. 25B

Cc1ccc(NC(=O)c2ccc(CN3CCN(C)CC3)cc2)cc1Nc1nccc(-c2cccnc2)n1 [Imatinib Mesylate]
fold sensitization to TAXOTERE: ~4 fold
